The exact form of at least one protein or probe is not confirmed. No signal at the amounts used counts as a negative.
Test system: YY1 + FOXP2 FHD
Assay: EMSA
Conditions: no simultaneous binding, proteins compete for DNA, YY1 2.5-7.5 uM; EMSA: 0.5 uM DNA, 20% (v/v) of binding buffer (10 mM HEPES pH 7.5, 1 mM MgCl2, 100 mM KCl, 10% glycerol, 0.1 mg/ml BSA), protein from 100 mM NaCl, overnight at 4 C; recombinant protein; protein details: N-terminal His6,His6 removed with thrombin

Sequence: TTTGATTGTTTACTTTGTTC (double strand) [CNTNAP2 DNA]
- binding result: no binding
